A short description of this data set: Measurement of luminescence spectra of purified luciferase at various pHs. The format is biochemical.

One molecule from US9234186B2, “Star-worm luciferase” (OLYMPUS CORPORATION, priority 2011, dated 2016) can be followed below.

B1: star-worm luciferase: Novel luciferase cloned from star-worm Diplocladon sp. 1, amino acid sequence SEQ ID NO: 1 (protein, listed as Diplocladon sp.)
chain: MPNEIVLHGAKPRDPLDLGTAGSQLFRSLTQFSYLREALVDAHTEQVVSYADILENSCRLAICFEKYGLRQNSVIAVCSENSAIFFYPVIAALYMGIITATVNDNYTERELFDTLNISKPELVFCSKKAIKNLTQLKNHIDFIKKLVVLDSDEDIGEVESLANFMKRYSESVIDVRNFKPRDFDAKEQVALIMSSSGTTGLPKGVVLTHRNLSVRFVHCKDPLFGTRTVPSTSILSIVPFHHAFGMFTTLSYFIVGLRVILLKRFEEEFFLSTIEKYRIPTIVLAPPVMVFLAKSPLVDQYDVSSIREVATGGAPVGIEVAEAVAKRLKINGILQGYGLTETCCAVLITPHDHVKTGSTGKVAPYVQAKVVDLSTGKSLGPNKRGELCFKSEIIMKGYFNNIKATEEAIDKEGWLHSGDVGYYDEDGHFYVVDRLKELIKYKGYQVAPAELEWLLLQHPAIKDAGVTGVPDEAAGELPGACIVLEEGHSLTEQEVIEYVAERVSPTKRIRGGVVFVDDIPKGATGKLVRSELRRMLSQKKSKL
As to B1, the “maximum luminous wavelength range” value (over the entire pH range of 5.5 to 8.0) was 557-562 nm. In addition, the maximum luminous wavelength is around 557 nm (pH 5.5); around 557 nm (pH 6.0); around 557 nm (pH 6.5); around 557 nm (pH 7.0); “around 559 nm” (pH 7.5); “around 562 nm” (pH 8.0). Besides, for the setting “within the range of pH 5.5-8.0”, the “change of the maximum luminous wavelength” value is at most 5 nm.
